Source: the supplement of paper PMC12889115
The list shows a part of the results. Values are raw readings; no control value is given beside them.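 In the initial screen, polymyxin B was used at a concentration that permeabilizes Salmonella's outer membrane but not its inner membrane. Maximum growth was set by DMSO wells with or without polymyxin B. Since plates varied, data were ranked per plate, and compounds giving the lowest OD600 advanced as hits.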

System: Salmonella enterica serovar Typhimurium SL1344
Assay: bacterial growth OD600 after 18 h with compound and polymyxin B; higher = more bacterial growth (less inhibition)
Conditions: 50 µM, Mueller-Hinton broth

Row | SMILES | bacterial growth OD600 (polymyxin B 0.75 µg/mL) | bacterial growth OD600 (polymyxin B 1 µg/mL)
1 | CCNC(=O)c1cn(CC(C)C)cc(C(=O)N2CC3(C)CC2CC(C)(C)C3)c1=O (stereo unspecified) | 0.828 | 
2 | CN(C(=O)c1cnn(Cc2ccccc2)c1)C1CCCN(Cc2ccccc2F)C1 (stereo unspecified) |  | 0.875
3 | c1ccc(-c2ccc(-c3n[nH]cc3CN3CCN(c4ncccn4)CC3)cc2)cc1 |  | 0.006
4 | COC(=O)C1CCN(CC2(O)CCCN(Cc3ccccc3F)C2=O)CC1 (stereo unspecified) |  | 0.983
5 | CCC1CN(CCC(=O)N2CCN(c3nc(C)cnc3C)CC2)Cc2ccc(Cl)cc2O1 (stereo unspecified) | 0.793 | 
6 | CC(C)(C)CN1CC(NS(=O)(=O)c2cccc(Cl)c2)CC1=O (stereo unspecified) | 0.964 | 
7 | CC(=O)NC1CCCc2nc(-c3ccccc3)ncc21 (stereo unspecified) |  | 0.99
8 | CCC(=O)N[C@@H]1c2ccccc2C2(CCN(Cc3ccc(C(=O)OC)cc3)CC2)[C@H]1OCCOC | 0.868 | 
9 | CC(=O)c1cc(CC(=O)NC(C)c2cnn(-c3ccccc3C)c2C)cs1 (stereo unspecified) |  | 0.83
10 | O=C(CCc1nnc(Cc2ccc(-c3ccccc3)cc2)o1)N1C[C@@H]2CCC[C@H]1C2 |  | 0.994
11 | COCc1ccc(C(=O)NCc2cccnc2Oc2ccc(C)nc2)s1 | 0.994 | 
12 | CCOC(=O)N1CCC(N2CCC(Oc3ccccc3C(=O)N3CCCCC3)CC2)CC1 |  | 0.589
13 | c1ccc(CCCN2CCCC(NCc3ccc4nonc4c3)C2)cc1 (stereo unspecified) |  | 0.283
14 | Cc1ncoc1C(=O)N1CCc2c([nH]c3ccccc23)C1c1ccccc1F (stereo unspecified) |  | 0.987
15 | CCOC(=O)C1(Cc2ccccc2C)CCCN(Cc2cnc(C)s2)C1 (stereo unspecified) |  | 0.019
16 | COc1cccc(CN2CCC(Oc3cc(OC)ccc3C(=O)N3CCCC3)CC2)c1 |  | 1.24

Row | SMILES | bacterial growth OD600 (polymyxin B 0.75 µg/mL) | bacterial growth OD600 (polymyxin B 1 µg/mL)
17 | COCc1cc(CN(C)C(=O)c2ccc3oc(CCc4ccccc4)nc3c2)n[nH]1 | 0.622 | 
18 | CCN(CC)C(=O)C1CCN(c2nc3nonc3nc2NCc2ccccc2)CC1 |  | 0.68
19 | c1ccc(CCN(Cc2ccccc2)Cc2nc(-c3cnccn3)no2)cc1 |  | 0.542
20 | COc1ccc(Cl)cc1NC(=O)CCC1CCCN(C(=O)c2ccoc2C)C1 (stereo unspecified) |  | 0.686
21 | O=C(N[C@@H]1c2ccccc2C2(CCN(C(=O)c3scc4c3CCCC4)CC2)[C@H]1O)c1ccccc1 | 0.602 | 
22 | O=C(Cn1nnnc1CN1CCOCC1)N[C@@H]1CCCC[C@H]1c1ccccc1 | 0.79 | 
23 | CCN1CCN(C2(C(=O)NCc3cccc(C)c3)Cc3ccccc3C2)CC1 | 0.775 | 
24 | CCOC(=O)C1(Cc2ccc(OC)cc2)CCN(C(=O)CSc2nc(C)cs2)CC1 | 0.493 | 
25 | COc1cc(OC)nc(N2C[C@H]3OC(=O)N(CCN4CCCCC4)[C@H]3C2)n1 |  | 1.17
26 | O=C(CCC1CCN(C(=O)C2CCOC2)CC1)NCc1cccc(C(F)(F)F)c1 (stereo unspecified) |  | 1.05
27 | CSCCNC(=O)C1CCC(=O)N(CCCN2CCOCC2)C1 (stereo unspecified) |  | 0.859
28 | O=C(CCC1(Cc2ccco2)CCC(=O)N1)NCc1ccc(F)cc1F (stereo unspecified) | 0.915 | 
29 | C/C=C(\C)CN1CCC(N2CCC(C(=O)NCc3cccnc3)CC2)CC1 |  | 1.08
30 | COCC1CCCCN1Cc1nc(-c2ccc(C(=O)OC)cc2)oc1C (stereo unspecified) |  | 0.872
31 | CCN(CC1CCCN(CCc2cccc(OC)c2)C1)C(=O)c1cccs1 (stereo unspecified) |  | 0.811

2 records picked at random from those above:
Row | SMILES | bacterial growth OD600 (polymyxin B 0.75 µg/mL) | bacterial growth OD600 (polymyxin B 1 µg/mL)
31 | CCN(CC1CCCN(CCc2cccc(OC)c2)C1)C(=O)c1cccs1 (stereo unspecified) |  | 0.811
13 | c1ccc(CCCN2CCCC(NCc3ccc4nonc4c3)C2)cc1 (stereo unspecified) |  | 0.283
